We go through 6 molecules from US9150840B2, “Isolated bacterial strain of Achromobacter sp. MTCC 5605 and a highly enantioselective epoxide hydrolase isolated therefrom” (COUNCIL OF SCIENTIFIC & INDUSTRIAL RESEARCH, priority 2011, dated 2015).

The data set relates to epoxide hydrolase from Achromobacter sp. MTCC 5605. Type of data set: biochemical.
The molecule `COc1ccc(OCC2CO2)cc1` (stereo not shown) [4-Methoxy phenyl glycidyl ether] returned a Diol product ee of 23% and a Residual epoxide ee of more than 86%.

The molecule `c1ccc(COCC2CO2)cc1` (stereo not shown) [Benzyl glycidyl ether] had a Diol product ee of 39% and a Residual epoxide ee of more than 99%.

`c1ccc(OCC2CO2)cc1` (stereo not shown) [Phenyl glycidyl ether] returned a Diol product ee of 26% and a Residual epoxide ee of more than 80%.

Take `c1ccc(C2CO2)cc1` (stereo not shown) [Styrene oxide]: the Diol product ee was found to be 65%; the “Enantiomeric ratio E” value stood at 64.09; the Residual epoxide ee was more than 99%; the “ees (enantiomeric excess of the substrate), (S)-enantiomer” value is reported as more than 99%.

As for `C=C(C)[C@@H]1CCC2(C)OC2C1` (single isomer, unassigned; (+)) [(+) Limonene epoxide], the Diol product ee is listed as 32% and the Residual epoxide ee is given as more than 90%.

As to `c1ccc2c(c1)CC1OC21` (stereo not shown) [Indene oxide], the Residual epoxide ee is listed as more than 92%.
